This is an account of results in article PMC8486843, “SPOP mutation induces replication over-firing by impairing Geminin ubiquitination and triggers replication catastrophe upon ATR inhibition” (Nature Communications, 2021).

The chains behind the UniProt entries cited, without tags or fusion partners.
UniProt O43791: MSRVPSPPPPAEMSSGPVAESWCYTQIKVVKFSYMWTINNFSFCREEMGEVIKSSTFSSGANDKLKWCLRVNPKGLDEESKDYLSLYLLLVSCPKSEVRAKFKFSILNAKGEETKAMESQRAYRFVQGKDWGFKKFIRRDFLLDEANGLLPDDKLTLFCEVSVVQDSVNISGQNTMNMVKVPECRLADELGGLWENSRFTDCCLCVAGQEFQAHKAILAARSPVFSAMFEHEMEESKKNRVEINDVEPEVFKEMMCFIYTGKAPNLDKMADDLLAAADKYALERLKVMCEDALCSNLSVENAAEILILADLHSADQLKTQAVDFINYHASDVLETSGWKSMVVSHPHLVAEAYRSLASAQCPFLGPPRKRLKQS

No constants are given. Whether binding was seen depends on the method and setting. In cells and extracts the contact can be indirect. A yes stands for co-enrichment or nearness to the bait. Other partners may have been found. For some assays here: Sequences can lack the tags named with a protein.

For experiment [1], the target named is SFB-SPOP (human) (UniProt O43791). In words: affinity purification with mass spectrometry; SFB-SPOP in 293T cells (DMSO, MMC, CPT, cisplatin or etoposide); NETN lysis buffer; tandem affinity purification on streptavidin beads and S tag beads, LC-MS.
Experiment [2] addresses T1, Flag-Geminin (human) (UniProt O75496).
T1 sequence: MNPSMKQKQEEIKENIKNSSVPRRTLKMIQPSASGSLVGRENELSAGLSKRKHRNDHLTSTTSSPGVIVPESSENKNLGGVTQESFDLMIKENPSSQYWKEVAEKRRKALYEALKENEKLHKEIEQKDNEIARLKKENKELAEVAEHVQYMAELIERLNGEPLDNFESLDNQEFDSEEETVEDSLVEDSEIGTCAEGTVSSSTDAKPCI
Nature of the experiment: affinity purification with mass spectrometry; 293T cells transfected with Flag-Geminin in the presence or absence of HA-Ub and Myc-SPOP; co-IP samples subjected to LC-MS (n = 1/group).

B1: endogenous Geminin (protein, UniProt O75496 1-209)
chain: MNPSMKQKQEEIKENIKNSSVPRRTLKMIQPSASGSLVGRENELSAGLSKRKHRNDHLTSTTSSPGVIVPESSENKNLGGVTQESFDLMIKENPSSQYWKEVAEKRRKALYEALKENEKLHKEIEQKDNEIARLKKENKELAEVAEHVQYMAELIERLNGEPLDNFESLDNQEFDSEEETVEDSLVEDSEIGTCAEGTVSSSTDAKPCI
With B1, in experiment [1], the binding entry is “binds”.

B2: Cdt1 (protein, UniProt Q9H211 1-546)
chain: MEQRRVTDFFARRRPGPPRIAPPKLACRTPSPARPALRAPASATSGSRKRARPPAAPGRDQARPPARRRLRLSVDEVSSPSTPEAPDIPACPSPGQKIKKSTPAAGQPPHLTSAQDQDTISELASCLQRARELGARVRALKASAQDAGESCTPEAEGRPEEPCGEKAPAYQRFHALAQPGLPGLVLPYKYQVLAEMFRSMDTIVGMLHNRSETPTFAKVQRGVQDMMRRRFEECNVGQIKTVYPASYRFRQERSVPTFKDGTRRSDYQLTIEPLLEQEADGAAPQLTASRLLQRRQIFSQKLVEHVKEHHKAFLASLSPAMVVPEDQLTRWHPRFNVDEVPDIEPAALPQPPATEKLTTAQEVLARARNLISPRMEKALSQLALRSAAPSSPGSPRPALPATPPATPPAASPSALKGVSQDLLERIRAKEAQKQLAQMTRCPEQEQRLQRLERLPELARVLRSVFVSERKPALSMEVACARMVGSCCTIMSPGEMEKHLLLLSELLPDWLSLHRIRTDTYVKLDKAADLAHITARLAHQTRAEEGL
Turning to B2, the binding entry in experiment [2] is “binds”.
